# Results reported in publication PMC11745341.
# No constants are given. Whether binding was seen depends on the method and setting. Some results given as binding are weak or reduced against the parent protein; the word gives no strength.
# T1: RNF212B (mouse) (UniProt D3Z423)
# T1 sequence: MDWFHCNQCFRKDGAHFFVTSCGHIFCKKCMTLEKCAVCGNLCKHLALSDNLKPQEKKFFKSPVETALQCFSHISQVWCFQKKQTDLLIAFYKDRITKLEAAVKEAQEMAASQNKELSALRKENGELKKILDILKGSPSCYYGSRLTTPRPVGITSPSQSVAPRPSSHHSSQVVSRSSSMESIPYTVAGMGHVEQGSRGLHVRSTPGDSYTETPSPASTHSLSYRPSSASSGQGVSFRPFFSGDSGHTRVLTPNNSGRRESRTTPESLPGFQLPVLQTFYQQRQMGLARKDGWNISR
# T2: RNF212 (mouse), F6TQD1
# T2 chain: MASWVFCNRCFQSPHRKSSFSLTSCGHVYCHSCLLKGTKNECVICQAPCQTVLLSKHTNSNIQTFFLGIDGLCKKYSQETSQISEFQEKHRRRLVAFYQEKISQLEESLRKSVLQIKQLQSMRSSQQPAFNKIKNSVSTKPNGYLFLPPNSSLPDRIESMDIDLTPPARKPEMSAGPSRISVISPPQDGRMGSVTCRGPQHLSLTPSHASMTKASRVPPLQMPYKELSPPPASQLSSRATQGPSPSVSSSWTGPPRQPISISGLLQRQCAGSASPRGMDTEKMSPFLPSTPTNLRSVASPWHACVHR
# T3: RNF212 (mouse) (UniProt F6TQD1)
# T3 sequence: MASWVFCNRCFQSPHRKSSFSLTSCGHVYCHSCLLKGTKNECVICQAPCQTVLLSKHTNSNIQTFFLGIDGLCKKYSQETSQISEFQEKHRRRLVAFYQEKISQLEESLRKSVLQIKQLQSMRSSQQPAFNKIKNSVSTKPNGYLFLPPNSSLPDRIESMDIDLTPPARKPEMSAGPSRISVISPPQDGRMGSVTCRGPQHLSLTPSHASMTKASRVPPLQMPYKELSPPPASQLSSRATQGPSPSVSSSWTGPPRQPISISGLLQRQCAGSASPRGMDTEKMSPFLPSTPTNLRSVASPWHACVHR
# Experiments:
# Experiment in all cases: two-hybrid; yeast two-hybrid (Y2H), standard protocols; details in SI Appendix
# RNF212B (mouse) = biological target: T1, RNF212B (mouse)
# RNF212 (mouse), F6TQD1 = biological target: T2, RNF212 (mouse), F6TQD1; conditions: remark: other sources report otherwise
# RNF212 (mouse) = biological target: T3, RNF212 (mouse)
binding (RNF212B (mouse)),"binding (RNF212 (mouse), F6TQD1)",binding (RNF212 (mouse)),Binder
,no binding,,"HEI10, D3Z3K2 1-276 (protein) MSLCEDMLLCNYRKCRIKLSGYAWVTACSHIFCDQHGSGEFSRSPAICPACNSTLSGKLDIVRTELSPSEEYKAMVLAGLRPEVVLDISSRALAFWTYQVHQERLYQEYNFSKAENHLKQMEKMYMQQIQSKNIELTSMKGEVISMKKVLEEYKKKFSDISEKLMERNRQYQKLQGLYDSLRLRNITIASQEGSLEPGMIPQSGVFGFPPGNNSKFSLDHIPVGNQGGGDEDVQFRPFFVCSPTAPEPINNFFSFASPSHEAEQQVCSRAFKAKRI"
,,binds weakly,"RNF212 (protein, UniProt F6TQD1 1-307) MASWVFCNRCFQSPHRKSSFSLTSCGHVYCHSCLLKGTKNECVICQAPCQTVLLSKHTNSNIQTFFLGIDGLCKKYSQETSQISEFQEKHRRRLVAFYQEKISQLEESLRKSVLQIKQLQSMRSSQQPAFNKIKNSVSTKPNGYLFLPPNSSLPDRIESMDIDLTPPARKPEMSAGPSRISVISPPQDGRMGSVTCRGPQHLSLTPSHASMTKASRVPPLQMPYKELSPPPASQLSSRATQGPSPSVSSSWTGPPRQPISISGLLQRQCAGSASPRGMDTEKMSPFLPSTPTNLRSVASPWHACVHR"

# More lines, now with the values behind:
Binder,binding (RNF212B (mouse)),"binding (RNF212 (mouse), F6TQD1)",binding (RNF212 (mouse))
"HEI10 (protein, UniProt D3Z3K2 1-276) MSLCEDMLLCNYRKCRIKLSGYAWVTACSHIFCDQHGSGEFSRSPAICPACNSTLSGKLDIVRTELSPSEEYKAMVLAGLRPEVVLDISSRALAFWTYQVHQERLYQEYNFSKAENHLKQMEKMYMQQIQSKNIELTSMKGEVISMKKVLEEYKKKFSDISEKLMERNRQYQKLQGLYDSLRLRNITIASQEGSLEPGMIPQSGVFGFPPGNNSKFSLDHIPVGNQGGGDEDVQFRPFFVCSPTAPEPINNFFSFASPSHEAEQQVCSRAFKAKRI",binds,,
"RNF212B (protein, UniProt D3Z423 1-297) MDWFHCNQCFRKDGAHFFVTSCGHIFCKKCMTLEKCAVCGNLCKHLALSDNLKPQEKKFFKSPVETALQCFSHISQVWCFQKKQTDLLIAFYKDRITKLEAAVKEAQEMAASQNKELSALRKENGELKKILDILKGSPSCYYGSRLTTPRPVGITSPSQSVAPRPSSHHSSQVVSRSSSMESIPYTVAGMGHVEQGSRGLHVRSTPGDSYTETPSPASTHSLSYRPSSASSGQGVSFRPFFSGDSGHTRVLTPNNSGRRESRTTPESLPGFQLPVLQTFYQQRQMGLARKDGWNISR",binds,,binds
